# Measured values taken from the supplement of paper PMC8728848.
# Some of the results follow.
# B1: ERGIC1-EDTA (Homo sapiens), Q969X5 (protein)
# chain: MKFLVNVALVFMVVYISYIYAAAHMHHHHHHDYDIPTTENLYFQGSEVVNELYVDDPDKDSGGKIDVSLNISLPNLHCELVGLDIQDEMGRHEVGHIDNSMKIPLNNGAGCRFEGQFSINKVPGNFHVSTHSATAQPQNPDMTHVIHKLSFGDTLQVQNIHGAFNALGGADRLTSNPLASHDYILKIVPTVYEDKSGKQRYSYQYTVANKEYVAYSHTGRIIPAIWFRYDLSPITVKYTE
# Experiments:
# Assay in all cases: glycan array binding signal (z-score within array); higher = stronger binding
# Settings in all cases: glycan notation: IUPAC condensed, linker removed
# Glc(b1-4)Glc = biological target: Glc(b1-4)Glc
# Summary of the method: (§1)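 The binding signal is a Z-score computed within each array. Data were drawn from 3228 arrays in the Consortium for Functional Glycomics database, restricted to those with a known protein sequence. Scores were averaged over arrays of the same protein sequence at different concentrations or buffers, and over linkers, and negative values can be taken as non-binding.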
# Glc(b1-6)Glc = biological target: Glc(b1-6)Glc
# Summary of the method: as §1
# GlcA(b1-3)Gal = biological target: GlcA(b1-3)Gal
# Summary of the method: as §1
# GlcA(b1-3)GlcNAc = biological target: GlcA(b1-3)GlcNAc
# Summary of the method: as §1
# GlcA(b1-6)Gal = biological target: GlcA(b1-6)Gal
# Summary of the method: as §1
# [1] = biological target: GlcA3S(b1-3)Gal(b1-4)GlcNAc(b1-2)Man
# Summary of the method: as §1
# [2] = biological target: GlcA3S(b1-3)Gal(b1-4)GlcNAc(b1-3)Gal(b1-4)Glc
# Summary of the method: as §1
# [3] = biological target: GlcNAc(a1-3)Gal(b1-4)GlcNAc
# Summary of the method: as §1
# [4] = biological target: GlcNAc(a1-4)Gal(b1-3)GlcNAc
# Summary of the method: as §1
# [5] = biological target: GlcNAc(a1-4)Gal(b1-4)GalNAc
# Summary of the method: as §1
# [6] = biological target: GlcNAc(a1-4)Gal(b1-4)GlcNAc
# Summary of the method: as §1
# [7] = biological target: GlcNAc(a1-4)Gal(b1-4)GlcNAc(b1-3)Gal(b1-4)Glc
# Summary of the method: as §1
# [8] = biological target: GlcNAc(a1-4)Gal(b1-4)GlcNAc(b1-3)Gal(b1-4)GlcNAc
# Summary of the method: as §1
# [9] = biological target: GlcNAc(a1-4)Gal(b1-4)GlcNAc(b1-3)Gal(b1-4)GlcNAc(b1-3)Gal(b1-4)GlcNAc
# Summary of the method: as §1
# [10] = biological target: GlcNAc(a1-4)Gal(b1-4)GlcNAc(b1-3)Gal(b1-4)[Fuc(a1-3)]GlcNAc(b1-3)Gal(b1-4)[Fuc(a1-3)]GlcNAc
# Summary of the method: as §1
# [11] = biological target: GlcNAc(a1-6)Gal(b1-4)GlcNAc
# Summary of the method: as §1
# [12] = biological target: GlcNAc(b1-2)Gal(b1-3)GalNAc
# Summary of the method: as §1
# [13] = biological target: GlcNAc(b1-2)Man(a1-3)[GlcNAc(b1-2)Man(a1-6)]Man(b1-4)GlcNAc(b1-4)GlcNAc
# Summary of the method: as §1
# [14] = biological target: GlcNAc(b1-2)Man(a1-3)[GlcNAc(b1-2)Man(a1-6)]Man(b1-4)GlcNAc(b1-4)[Fuc(a1-6)]GlcNAc
# Summary of the method: as §1
# [15] = biological target: GlcNAc(b1-2)Man(a1-3)[GlcNAc(b1-4)][GlcNAc(b1-2)Man(a1-6)]Man(b1-4)GlcNAc(b1-4)GlcNAc
# Summary of the method: as §1
# [16] = biological target: GlcNAc(b1-2)Man(a1-3)[GlcNAc(b1-4)][GlcNAc(b1-2)Man(a1-6)]Man(b1-4)GlcNAc(b1-4)[Fuc(a1-6)]GlcNAc
# Summary of the method: as §1
# [17] = biological target: GlcNAc(b1-2)[GlcNAc(b1-4)]Man(a1-3)[GlcNAc(b1-2)Man(a1-6)]Man(b1-4)GlcNAc(b1-4)GlcNAc
# Summary of the method: as §1
# [18] = biological target: GlcNAc(b1-2)[GlcNAc(b1-4)]Man(a1-3)[GlcNAc(b1-4)][GlcNAc(b1-2)Man(a1-6)]Man(b1-4)GlcNAc(b1-4)GlcNAc
# Summary of the method: as §1
# [19] = biological target: GlcNAc(b1-2)[GlcNAc(b1-4)]Man(a1-3)[GlcNAc(b1-4)][GlcNAc(b1-2)[GlcNAc(b1-6)]Man(a1-6)]Man(b1-4)GlcNAc(b1-4)GlcNAc
# Summary of the method: as §1
# [20] = biological target: GlcNAc(b1-2)[GlcNAc(b1-4)]Man(a1-3)[GlcNAc(b1-4)][GlcNAc(b1-2)[GlcNAc(b1-6)]Man(a1-6)]Man(b1-4)GlcNAc(b1-4)[Fuc(a1-6)]GlcNAc
# Summary of the method: as §1
# [21] = biological target: GlcNAc(b1-2)[GlcNAc(b1-6)]Man(a1-6)[GlcNAc(b1-2)Man(a1-3)]Man(b1-4)GlcNAc(b1-4)GlcNAc
# Summary of the method: as §1
# [22] = biological target: GlcNAc(b1-2)[GlcNAc(b1-6)]Man(a1-6)[GlcNAc(b1-2)Man(a1-3)]Man(b1-4)GlcNAc(b1-4)[Fuc(a1-6)]GlcNAc
# Summary of the method: as §1
# [23] = biological target: GlcNAc(b1-2)[GlcNAc(b1-6)]Man(a1-6)[GlcNAc(b1-4)][GlcNAc(b1-2)Man(a1-3)]Man(b1-4)GlcNAc(b1-4)GlcNAc
# Summary of the method: as §1
# GlcNAc(b1-3)Fuc = biological target: GlcNAc(b1-3)Fuc
# Summary of the method: as §1
# GlcNAc(b1-3)Gal = biological target: GlcNAc(b1-3)Gal
# Summary of the method: as §1
# [24] = biological target: GlcNAc(b1-3)Gal(b1-3)GalNAc
# Summary of the method: as §1
# GlcNAc(b1-3)Gal(b1-4)Glc = biological target: GlcNAc(b1-3)Gal(b1-4)Glc
# Summary of the method: as §1
# [25] = biological target: GlcNAc(b1-3)Gal(b1-4)GlcNAc
# Summary of the method: as §1
# [26] = biological target: GlcNAc(b1-3)Gal(b1-4)GlcNAc(b1-2)Man(a1-3)[GlcNAc(b1-3)Gal(b1-4)GlcNAc(b1-2)Man(a1-6)]Man(b1-4)GlcNAc(b1-4)GlcNAc
# Summary of the method: as §1
# [27] = biological target: GlcNAc(b1-3)Gal(b1-4)GlcNAc(b1-2)Man(a1-3)[GlcNAc(b1-3)Gal(b1-4)GlcNAc(b1-2)Man(a1-6)]Man(b1-4)GlcNAc(b1-4)[Fuc(a1-6)]GlcNAc
# Summary of the method: as §1
# [28] = biological target: GlcNAc(b1-3)Gal(b1-4)GlcNAc(b1-2)[GlcNAc(b1-3)Gal(b1-4)GlcNAc(b1-6)]Man(a1-6)[GlcNAc(b1-3)Gal(b1-4)GlcNAc(b1-2)Man(a1-3)]Man(b1-4)GlcNAc(b1-4)GlcNAc
# Summary of the method: as §1
# [29] = biological target: GlcNAc(b1-3)Gal(b1-4)GlcNAc(b1-3)Gal(b1-4)GlcNAc
# Summary of the method: as §1
binder,measurement,setting,value
B1,glycan array binding signal (z-score),Glc(b1-4)Glc,-0.459
same,glycan array binding signal (z-score),Glc(b1-6)Glc,-0.518
same,glycan array binding signal (z-score),GlcA(b1-3)Gal,0.328
same,glycan array binding signal (z-score),GlcA(b1-3)GlcNAc,0.706
same,glycan array binding signal (z-score),GlcA(b1-6)Gal,-0.179
same,glycan array binding signal (z-score),[1],0.43
same,glycan array binding signal (z-score),[2],-0.72
same,glycan array binding signal (z-score),[3],-0.841
same,glycan array binding signal (z-score),[4],-0.065
same,glycan array binding signal (z-score),[5],-0.59
same,glycan array binding signal (z-score),[6],0.769
same,glycan array binding signal (z-score),[7],-0.872
same,glycan array binding signal (z-score),[8],-0.366
same,glycan array binding signal (z-score),[9],-0.145
same,glycan array binding signal (z-score),[10],1.87
same,glycan array binding signal (z-score),[11],-0.295
same,glycan array binding signal (z-score),[12],-0.315
same,glycan array binding signal (z-score),[13],-1.03
same,glycan array binding signal (z-score),[14],1.96
same,glycan array binding signal (z-score),[15],0.026
same,glycan array binding signal (z-score),[16],0.562
same,glycan array binding signal (z-score),[17],-0.303
same,glycan array binding signal (z-score),[18],-0.246
same,glycan array binding signal (z-score),[19],0.317
same,glycan array binding signal (z-score),[20],-0.379
same,glycan array binding signal (z-score),[21],-0.245
same,glycan array binding signal (z-score),[22],0.76
same,glycan array binding signal (z-score),[23],0.336
same,glycan array binding signal (z-score),GlcNAc(b1-3)Fuc,1.05
same,glycan array binding signal (z-score),GlcNAc(b1-3)Gal,-0.563
same,glycan array binding signal (z-score),[24],0.03
same,glycan array binding signal (z-score),GlcNAc(b1-3)Gal(b1-4)Glc,0.013
same,glycan array binding signal (z-score),[25],0.319
same,glycan array binding signal (z-score),[26],0.263
same,glycan array binding signal (z-score),[27],1.59
same,glycan array binding signal (z-score),[28],0.433
same,glycan array binding signal (z-score),[29],-0.266

# Quoted at random: 2 entries already listed, in no set order.
binder,measurement,setting,value
B1,glycan array binding signal (z-score),[28],0.433
same,glycan array binding signal (z-score),[20],-0.379
